Measured values taken from doi:10.1101/428854.
Where two headings read alike, the source gives them in different places. Results are given in words; binding and its absence hold for the method and conditions named. For part of these data: In cells and extracts the contact can be indirect. Some binding calls cover weakened binding; strength is not graded here. For part of these data: Sequences can lack the tags named with a protein.

Protein sequences, listed by entry. Tags and fused reporters are not part of them. Lines headed by an entry give the natural chain unless they say otherwise; changes in a name come on top. Residues count along the entry.
UniProt Q9LX66: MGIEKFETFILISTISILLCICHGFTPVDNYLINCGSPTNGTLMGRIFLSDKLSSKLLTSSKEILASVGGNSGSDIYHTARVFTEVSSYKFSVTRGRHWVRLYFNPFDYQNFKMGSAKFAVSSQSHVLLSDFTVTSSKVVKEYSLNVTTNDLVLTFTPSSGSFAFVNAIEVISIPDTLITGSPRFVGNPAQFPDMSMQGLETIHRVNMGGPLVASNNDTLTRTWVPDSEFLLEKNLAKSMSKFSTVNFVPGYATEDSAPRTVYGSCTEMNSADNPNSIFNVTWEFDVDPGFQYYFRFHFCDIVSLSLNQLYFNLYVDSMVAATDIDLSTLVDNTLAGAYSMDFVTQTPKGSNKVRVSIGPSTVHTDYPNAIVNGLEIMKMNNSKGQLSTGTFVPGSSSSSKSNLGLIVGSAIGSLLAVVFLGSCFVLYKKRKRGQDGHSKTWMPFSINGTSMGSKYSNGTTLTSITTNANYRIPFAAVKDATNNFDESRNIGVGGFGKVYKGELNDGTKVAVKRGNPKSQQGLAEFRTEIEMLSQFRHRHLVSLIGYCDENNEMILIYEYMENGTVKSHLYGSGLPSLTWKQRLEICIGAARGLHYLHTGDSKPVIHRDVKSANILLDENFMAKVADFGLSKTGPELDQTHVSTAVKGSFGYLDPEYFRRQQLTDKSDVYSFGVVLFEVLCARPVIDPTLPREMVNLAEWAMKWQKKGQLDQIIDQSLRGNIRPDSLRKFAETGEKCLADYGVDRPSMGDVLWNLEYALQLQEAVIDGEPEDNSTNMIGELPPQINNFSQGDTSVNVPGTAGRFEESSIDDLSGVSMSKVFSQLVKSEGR
HERK1-GFP (pFER::HERK1-GFP) transiently expressed in N. benthamiana: residues 25-830 of Q9LX66

Legend:
[1] = biological target: T1, extracellular domain of FERONIA (FER-ECD) (Arabidopsis thaliana) (UniProt Q9SCZ4); experiment: two-hybrid
T1 sequence: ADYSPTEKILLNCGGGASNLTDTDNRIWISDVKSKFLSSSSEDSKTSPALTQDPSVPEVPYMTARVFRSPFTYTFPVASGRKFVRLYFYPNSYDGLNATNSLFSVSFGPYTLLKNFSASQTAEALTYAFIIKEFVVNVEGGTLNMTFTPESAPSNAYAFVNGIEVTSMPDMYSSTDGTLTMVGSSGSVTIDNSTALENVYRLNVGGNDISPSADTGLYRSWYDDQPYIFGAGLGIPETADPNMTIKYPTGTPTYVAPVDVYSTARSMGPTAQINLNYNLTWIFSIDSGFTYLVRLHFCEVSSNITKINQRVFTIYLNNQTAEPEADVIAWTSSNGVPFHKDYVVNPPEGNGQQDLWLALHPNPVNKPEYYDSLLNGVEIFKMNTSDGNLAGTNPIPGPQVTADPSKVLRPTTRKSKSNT

[2] = biological target: extracellular domain of HERK1 (HERK1-ECD) (Arabidopsis thaliana) (UniProt Q9LX66); experiment: two-hybrid
[3] = biological target: cytosolic kinase domain of FERONIA (FER-KIN) (Arabidopsis thaliana) (UniProt Q9SCZ4); experiment: two-hybrid
[4] = biological target: HERK1-GFP (pFER::HERK1-GFP) transiently expressed in N. benthamiana (Arabidopsis thaliana) (UniProt Q9LX66); experiment: co-IP
[5] = biological target: T1, extracellular domain of FERONIA (FER-ECD) (Arabidopsis thaliana); experiment: two-hybrid; remark: listed apart in the source
[6] = biological target: extracellular domain of HERK1 (HERK1-ECD) (Arabidopsis thaliana) (UniProt Q9LX66); experiment: two-hybrid; remark: listed apart in the source

extracellular domain of HERK1 (HERK1-ECD) (from UniProt Q9LX66 24-405) (domain or fragment)
binding [1]: binds
binding [2]: binds

cytosolic kinase domain of HERK1 (HERK1-KIN) (from UniProt Q9LX66 429-830) (domain or fragment)
binding [3]: binds weakly

B1: HA-LRE (p35S::HA-LRE) transiently expressed in N. benthamiana (protein, UniProt B3GS44 21-139)
chain: SSISDGVFESQTSVSGRNLRHAKKKCEVNFEYMDYKVLTKRCKGPAFPAKECCSAFKEFACPYVSQINDMNSDCAQTMFSYMNIYGNYPTGLFANECRERKDGLVCPLPPLYSHNLNAS
binding [4]: binds

B2: extracellular domain of FERONIA (FER-ECD) (domain or fragment, UniProt Q9SCZ4 28-446)
chain: T1 sequence
binding [5]: binds
binding [6]: binds
